Assay results taken from the supplement of paper PMC10849652.
This is one part of the list.

The chains behind the UniProt entries cited, without tags or fusion partners. Where a name states a change or a piece, a line headed by the entry shows the natural chain unless it says otherwise.
UniProt Q9BWT6: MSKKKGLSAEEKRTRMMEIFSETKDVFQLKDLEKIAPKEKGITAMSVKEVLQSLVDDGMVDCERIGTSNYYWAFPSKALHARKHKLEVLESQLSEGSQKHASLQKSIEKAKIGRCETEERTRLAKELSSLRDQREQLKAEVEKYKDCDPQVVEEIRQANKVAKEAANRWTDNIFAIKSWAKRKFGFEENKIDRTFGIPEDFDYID
UniProt Q96EN8: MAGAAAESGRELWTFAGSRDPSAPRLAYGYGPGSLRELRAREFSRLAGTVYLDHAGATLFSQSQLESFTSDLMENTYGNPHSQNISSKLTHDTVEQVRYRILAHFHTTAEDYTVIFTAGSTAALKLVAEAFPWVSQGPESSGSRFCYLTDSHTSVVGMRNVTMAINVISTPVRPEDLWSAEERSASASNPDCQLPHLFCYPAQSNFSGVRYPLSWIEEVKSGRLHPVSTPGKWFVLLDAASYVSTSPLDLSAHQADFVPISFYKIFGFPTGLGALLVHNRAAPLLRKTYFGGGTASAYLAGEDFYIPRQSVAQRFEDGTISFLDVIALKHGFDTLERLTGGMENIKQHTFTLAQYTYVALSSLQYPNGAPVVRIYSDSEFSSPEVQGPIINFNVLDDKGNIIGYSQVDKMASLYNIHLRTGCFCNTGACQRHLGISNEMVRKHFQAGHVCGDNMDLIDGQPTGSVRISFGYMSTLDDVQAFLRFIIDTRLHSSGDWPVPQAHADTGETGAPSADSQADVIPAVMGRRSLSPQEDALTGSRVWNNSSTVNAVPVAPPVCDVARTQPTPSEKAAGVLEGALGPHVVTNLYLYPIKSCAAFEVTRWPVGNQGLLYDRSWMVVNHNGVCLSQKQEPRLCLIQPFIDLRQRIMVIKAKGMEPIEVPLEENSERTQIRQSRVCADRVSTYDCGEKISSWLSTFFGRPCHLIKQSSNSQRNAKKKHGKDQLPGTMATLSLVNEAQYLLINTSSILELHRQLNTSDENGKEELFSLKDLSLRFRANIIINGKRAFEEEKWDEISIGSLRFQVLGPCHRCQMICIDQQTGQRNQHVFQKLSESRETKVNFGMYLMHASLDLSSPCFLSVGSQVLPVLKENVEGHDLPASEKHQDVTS
UniProt P40692: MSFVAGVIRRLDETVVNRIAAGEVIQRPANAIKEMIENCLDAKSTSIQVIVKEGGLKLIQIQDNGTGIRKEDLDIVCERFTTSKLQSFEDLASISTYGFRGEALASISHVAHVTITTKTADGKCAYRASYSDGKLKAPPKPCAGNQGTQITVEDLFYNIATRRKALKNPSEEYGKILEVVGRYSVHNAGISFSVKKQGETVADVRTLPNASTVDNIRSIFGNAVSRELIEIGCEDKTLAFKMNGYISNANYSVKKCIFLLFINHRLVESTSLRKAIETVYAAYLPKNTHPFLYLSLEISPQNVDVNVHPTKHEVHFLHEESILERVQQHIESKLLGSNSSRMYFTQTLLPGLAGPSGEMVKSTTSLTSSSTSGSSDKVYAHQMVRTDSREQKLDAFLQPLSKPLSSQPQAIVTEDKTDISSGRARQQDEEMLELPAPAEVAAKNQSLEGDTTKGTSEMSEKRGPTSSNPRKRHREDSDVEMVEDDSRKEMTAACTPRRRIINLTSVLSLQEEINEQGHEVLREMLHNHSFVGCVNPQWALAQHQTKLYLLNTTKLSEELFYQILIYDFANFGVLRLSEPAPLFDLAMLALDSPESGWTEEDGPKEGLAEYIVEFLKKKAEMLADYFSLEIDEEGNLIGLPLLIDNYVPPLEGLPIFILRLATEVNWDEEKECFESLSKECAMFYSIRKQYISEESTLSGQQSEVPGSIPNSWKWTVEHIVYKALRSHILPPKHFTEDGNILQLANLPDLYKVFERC
UniProt Q14149: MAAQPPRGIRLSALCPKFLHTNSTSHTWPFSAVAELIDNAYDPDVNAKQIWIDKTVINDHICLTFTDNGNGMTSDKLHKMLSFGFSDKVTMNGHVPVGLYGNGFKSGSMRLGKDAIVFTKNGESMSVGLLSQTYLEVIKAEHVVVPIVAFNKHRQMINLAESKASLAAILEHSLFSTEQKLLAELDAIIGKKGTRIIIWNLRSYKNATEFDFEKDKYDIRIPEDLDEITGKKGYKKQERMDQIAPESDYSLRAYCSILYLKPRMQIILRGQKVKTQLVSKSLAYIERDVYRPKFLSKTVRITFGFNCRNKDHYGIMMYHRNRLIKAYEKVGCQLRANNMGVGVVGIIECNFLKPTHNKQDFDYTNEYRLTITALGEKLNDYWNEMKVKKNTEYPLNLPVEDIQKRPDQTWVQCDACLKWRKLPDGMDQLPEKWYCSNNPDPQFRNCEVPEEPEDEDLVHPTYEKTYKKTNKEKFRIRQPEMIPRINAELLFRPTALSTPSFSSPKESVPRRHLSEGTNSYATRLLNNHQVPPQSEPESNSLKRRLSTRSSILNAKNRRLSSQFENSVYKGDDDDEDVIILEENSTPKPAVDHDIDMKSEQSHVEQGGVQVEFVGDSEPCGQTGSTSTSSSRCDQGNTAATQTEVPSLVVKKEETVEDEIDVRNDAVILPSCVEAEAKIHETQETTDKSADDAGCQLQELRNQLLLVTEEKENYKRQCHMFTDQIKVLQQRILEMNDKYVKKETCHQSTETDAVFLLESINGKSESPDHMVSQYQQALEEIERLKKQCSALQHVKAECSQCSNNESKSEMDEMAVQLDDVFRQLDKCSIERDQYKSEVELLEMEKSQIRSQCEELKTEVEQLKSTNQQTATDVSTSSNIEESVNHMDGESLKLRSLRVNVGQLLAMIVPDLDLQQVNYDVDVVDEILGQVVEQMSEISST
UniProt Q8N108: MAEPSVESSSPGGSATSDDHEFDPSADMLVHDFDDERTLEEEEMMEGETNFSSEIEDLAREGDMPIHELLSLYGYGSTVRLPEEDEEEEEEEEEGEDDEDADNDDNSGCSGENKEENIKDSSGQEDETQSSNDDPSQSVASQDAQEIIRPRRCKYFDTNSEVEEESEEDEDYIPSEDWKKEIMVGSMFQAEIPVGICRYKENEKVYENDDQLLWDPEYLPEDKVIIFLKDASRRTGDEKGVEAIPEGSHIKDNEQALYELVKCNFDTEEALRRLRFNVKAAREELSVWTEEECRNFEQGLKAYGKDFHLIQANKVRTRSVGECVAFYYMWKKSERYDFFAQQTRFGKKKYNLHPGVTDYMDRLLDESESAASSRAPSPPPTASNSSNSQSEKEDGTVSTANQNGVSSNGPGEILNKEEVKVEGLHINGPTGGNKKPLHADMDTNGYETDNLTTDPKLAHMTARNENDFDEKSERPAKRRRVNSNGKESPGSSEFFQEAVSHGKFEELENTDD
UniProt P49959: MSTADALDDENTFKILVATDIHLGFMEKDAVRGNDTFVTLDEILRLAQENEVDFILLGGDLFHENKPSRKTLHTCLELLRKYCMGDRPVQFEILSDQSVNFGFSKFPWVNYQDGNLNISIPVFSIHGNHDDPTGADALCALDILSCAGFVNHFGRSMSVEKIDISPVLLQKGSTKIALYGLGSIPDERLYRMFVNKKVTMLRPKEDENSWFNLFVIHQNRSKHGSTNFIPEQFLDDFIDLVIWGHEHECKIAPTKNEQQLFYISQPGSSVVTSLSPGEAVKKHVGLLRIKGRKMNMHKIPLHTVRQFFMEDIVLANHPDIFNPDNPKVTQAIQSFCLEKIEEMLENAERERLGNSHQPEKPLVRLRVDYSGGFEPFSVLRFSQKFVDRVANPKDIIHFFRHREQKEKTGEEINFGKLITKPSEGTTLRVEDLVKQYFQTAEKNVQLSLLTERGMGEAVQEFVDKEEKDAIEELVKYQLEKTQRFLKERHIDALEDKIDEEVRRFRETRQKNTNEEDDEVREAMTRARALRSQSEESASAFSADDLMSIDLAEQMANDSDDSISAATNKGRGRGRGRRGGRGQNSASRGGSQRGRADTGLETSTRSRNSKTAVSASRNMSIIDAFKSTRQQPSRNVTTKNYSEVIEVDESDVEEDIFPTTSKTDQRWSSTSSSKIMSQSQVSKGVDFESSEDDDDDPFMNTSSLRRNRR
UniProt Q9NZB8: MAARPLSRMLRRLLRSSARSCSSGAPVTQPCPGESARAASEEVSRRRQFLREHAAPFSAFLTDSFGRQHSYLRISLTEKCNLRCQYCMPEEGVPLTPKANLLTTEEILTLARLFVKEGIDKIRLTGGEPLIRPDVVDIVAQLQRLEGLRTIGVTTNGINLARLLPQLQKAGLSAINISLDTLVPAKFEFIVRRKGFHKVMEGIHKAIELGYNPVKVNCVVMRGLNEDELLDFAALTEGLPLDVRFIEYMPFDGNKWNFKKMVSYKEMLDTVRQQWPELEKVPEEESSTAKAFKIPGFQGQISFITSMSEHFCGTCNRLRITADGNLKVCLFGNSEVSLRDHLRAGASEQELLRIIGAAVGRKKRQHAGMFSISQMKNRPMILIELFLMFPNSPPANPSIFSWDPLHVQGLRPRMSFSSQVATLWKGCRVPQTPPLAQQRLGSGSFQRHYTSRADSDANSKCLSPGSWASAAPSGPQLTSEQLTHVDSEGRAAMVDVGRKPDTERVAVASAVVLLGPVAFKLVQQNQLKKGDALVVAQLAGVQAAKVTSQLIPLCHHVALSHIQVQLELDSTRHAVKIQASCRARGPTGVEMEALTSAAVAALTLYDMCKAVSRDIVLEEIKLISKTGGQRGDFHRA
UniProt Q9BVC4, whole entry, looked up: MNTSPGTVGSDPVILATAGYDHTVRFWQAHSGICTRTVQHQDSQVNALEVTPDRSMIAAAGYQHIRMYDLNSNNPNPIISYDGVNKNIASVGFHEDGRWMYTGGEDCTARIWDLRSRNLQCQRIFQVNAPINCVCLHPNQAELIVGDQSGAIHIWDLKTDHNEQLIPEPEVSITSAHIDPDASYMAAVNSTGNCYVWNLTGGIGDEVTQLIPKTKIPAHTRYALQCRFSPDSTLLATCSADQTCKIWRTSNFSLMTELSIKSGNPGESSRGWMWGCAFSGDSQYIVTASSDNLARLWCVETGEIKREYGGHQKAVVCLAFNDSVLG
UniProt Q03111: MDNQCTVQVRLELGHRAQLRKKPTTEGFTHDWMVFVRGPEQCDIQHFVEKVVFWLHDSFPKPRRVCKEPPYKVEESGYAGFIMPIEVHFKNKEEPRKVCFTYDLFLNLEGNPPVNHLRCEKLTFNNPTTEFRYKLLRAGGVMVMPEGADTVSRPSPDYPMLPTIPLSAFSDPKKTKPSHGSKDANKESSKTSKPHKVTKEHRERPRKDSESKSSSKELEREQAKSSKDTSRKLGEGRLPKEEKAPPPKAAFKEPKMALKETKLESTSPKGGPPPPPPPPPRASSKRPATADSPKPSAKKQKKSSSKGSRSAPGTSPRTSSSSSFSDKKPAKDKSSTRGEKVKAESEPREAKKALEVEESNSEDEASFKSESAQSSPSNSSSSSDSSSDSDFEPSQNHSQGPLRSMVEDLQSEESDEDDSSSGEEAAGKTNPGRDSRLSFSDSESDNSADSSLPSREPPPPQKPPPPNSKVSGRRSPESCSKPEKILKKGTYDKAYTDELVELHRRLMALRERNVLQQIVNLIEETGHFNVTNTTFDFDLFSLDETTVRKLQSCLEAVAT
UniProt P51948: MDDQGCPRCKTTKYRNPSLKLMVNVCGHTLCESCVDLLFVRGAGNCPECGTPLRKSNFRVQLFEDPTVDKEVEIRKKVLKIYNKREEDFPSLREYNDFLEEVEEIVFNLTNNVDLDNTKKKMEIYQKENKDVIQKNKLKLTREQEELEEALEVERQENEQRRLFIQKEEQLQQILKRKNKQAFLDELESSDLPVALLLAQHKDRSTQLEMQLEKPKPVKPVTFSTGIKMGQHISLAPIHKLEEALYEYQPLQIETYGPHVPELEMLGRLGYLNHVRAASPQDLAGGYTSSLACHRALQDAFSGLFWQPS
UniProt Q9UL63, whole entry, looked up: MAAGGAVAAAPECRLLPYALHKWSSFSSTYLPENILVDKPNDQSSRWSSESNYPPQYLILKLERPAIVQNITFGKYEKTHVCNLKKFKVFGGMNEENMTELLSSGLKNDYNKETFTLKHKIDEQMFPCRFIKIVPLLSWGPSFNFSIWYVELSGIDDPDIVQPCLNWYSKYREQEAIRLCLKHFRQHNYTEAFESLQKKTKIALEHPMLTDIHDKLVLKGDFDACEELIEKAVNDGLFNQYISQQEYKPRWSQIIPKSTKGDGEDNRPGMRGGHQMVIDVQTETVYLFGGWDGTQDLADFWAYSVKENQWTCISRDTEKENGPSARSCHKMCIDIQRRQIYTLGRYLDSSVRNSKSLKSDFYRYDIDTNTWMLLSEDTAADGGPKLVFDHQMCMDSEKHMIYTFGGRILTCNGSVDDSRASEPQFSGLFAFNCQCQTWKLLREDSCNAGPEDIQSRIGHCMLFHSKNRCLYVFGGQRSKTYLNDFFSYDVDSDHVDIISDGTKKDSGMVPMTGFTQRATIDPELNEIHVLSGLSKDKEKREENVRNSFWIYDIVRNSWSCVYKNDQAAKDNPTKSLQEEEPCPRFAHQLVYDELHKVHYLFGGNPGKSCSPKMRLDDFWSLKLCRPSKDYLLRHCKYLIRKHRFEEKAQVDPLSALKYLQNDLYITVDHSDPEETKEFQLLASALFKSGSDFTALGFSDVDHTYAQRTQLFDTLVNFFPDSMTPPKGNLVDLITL

Experiments:
Assay in all cases: log2 fold change, soluble protein after heating vs DMSO (PISA); higher = thermal stabilisation; K562 lysate, 10 uM; active = over 0.2 and 3.5 SD of the protein, either way, in both replicates (recomputed)
[1] = compound: C=CC(=O)N1CCC[C@@H](n2nc(-c3ccc(Oc4ccccc4)cc3)c3c(N)ncnc32)C1 [ibrutinib]
In short: (§1)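 Soluble protein was defined as the supernatant remaining after 21,000xg for 90 min, following pooling of heated aliquots and adjustment to 0.5% NP-40 at 4°C. Before that, crude K562 extract at 1 mg/mL protein in PBS pH 7.4 with 1 mM MgCl2 was treated with 10 μM compound for 30 min and heated for 3 min across 48°C-58°C. Quantification used TMTpro 16plex LC-MS/MS with channel sums equalised, and values are log-two fold changes in thermal stability relative to solvent controls from duplicates.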

[2] = compound: CC(=O)c1cnc2ccc(-c3cc(Cl)c(O)c(Cl)c3)nc2c1N[C@H]1CC[C@H](CN(C)C)CC1
In short: as §1

[3] = compound: CC(C)(C)Cn1c(N)nc2ccc(-c3[nH]c(C(C)(C)C)nc3-c3ccc(F)cc3)nc21 [ralimetinib]
In short: as §1

[4] = compound: CC(C)(O)CC(=O)NCCn1ccc2ncnc(Nc3ccc(Oc4cccc(C(F)(F)F)c4)c(Cl)c3)c21
In short: as §1

[5] = compound: CC(C)C1=C2N=C(C=C(N2N=C1)NCC3=CC=CC=C3)NCCCCCCN
In short: as §1

[6] = compound: CC1=C(C(CC(=O)N1)C2=CC=C(C=C2)C(F)(F)F)C(=O)NC3=C(C=C4C(=C3)C=NN4)F
In short: as §1

[7] = compound: CC1=C(C2=C(C=C1)C(=O)C3=CC=CC=C3N2CCCN)C
In short: as §1

[8] = compound: CC1=C(C=C(C=C1)NC(=O)C2=CC(=CC=C2)C(C)(C)C#N)NC3=CC4=C(C=C3)N=CN(C4=O)C
In short: as §1

[9] = compound: CC1=C(C=C(C=C1)NC(=O)C2=CC(=CC=C2)N(C)C)NC(=O)C3=CC=C(C=C3)O
In short: as §1

[10] = compound: CC1=CC=C(C=C1)SC2=C3C=C(SC3=CN=C2)C(=O)N
In short: as §1

[11] = compound: CCCS(=O)(=O)Nc1ccc(F)c(C(=O)c2c[nH]c3ncc(-c4ccc(Cl)cc4)cc23)c1F [vemurafenib]
In short: as §1

[12] = compound: CCCS(=O)(=O)Nc1ccc(F)c(C(=O)c2c[nH]c3ncc(Cl)cc23)c1F
In short: as §1

[13] = compound: CCN(CCCOc1ccc2c(Nc3cc(CC(=O)Nc4cccc(F)c4)[nH]n3)ncnc2c1)CCOP(=O)(O)O [barasertib]
In short: as §1

[14] = compound: CC[C@@H]1C(=O)N(C)c2cnc(Nc3ccc(C(=O)NC4CCN(C)CC4)cc3OC)nc2N1C1CCCC1
In short: as §1

[15] = compound: CC[C@@H]1C(=O)N(C)c2cnc(Nc3ccc(C(=O)N[C@H]4CC[C@H](N5CCN(CC6CC6)CC5)CC4)cc3OC)nc2N1C(C)C [volasertib]
In short: as §1

[16] = compound: CCn1c(C(=O)N(C2CC2)C2CC2)cc2c3c(ncn3C)c(Nc3cc(C)n(C)n3)nc21
In short: as §1

[17] = compound: CCn1cc(-c2ccnc3[nH]c(-c4cccc(CN(C)C)c4)cc23)c(-c2ccc(NC(=O)N(C)C)cc2)n1
In short: as §1

[18] = compound: CN1CCC(CNc2ccc3ncc(-c4cccc(OC(F)(F)F)c4)n3n2)CC1
In short: as §1

[19] = compound: CN1CCN(CCOc2cc(OC3CCOCC3)c3c(Nc4c(Cl)ccc5c4OCO5)ncnc3c2)CC1 [saracatinib]
In short: as §1

[20] = compound: CN1CCN(c2nc(C3=C(c4c[nH]c5ccccc45)C(=O)NC3=O)c3ccccc3n2)CC1 [sotrastaurin]
In short: as §1

Measured: log2 fold change

MICB, A0A140T979
inactive: [1] 0.074 | [2] 0.317 | [3] -0.037 | [4] -0.101 | [5] -0.07 | [6] -0.11 | [7] -0.002 | [8] 0.016 | [9] 0.004 | [10] -0.068 | [11] -0.054 | [12] 0.098 | [13] 0.039 | [14] 0.223 | [15] -0.072 | [16] -0.084 | [17] -0.05 | [18] 0.066 | [19] 0.019 | [20] 0.096

MND1 (UniProt Q9BWT6)
inactive: [1] 0.024 | [2] -0.005 | [3] 0.005 | [4] -0.006 | [5] 0 | [6] 0 | [7] 0.01 | [8] -0.022 | [9] 0.002 | [10] -0.006 | [11] -0.023 | [12] 0.016 | [13] -0.02 | [14] -0.018 | [15] 0.026 | [16] -0.013 | [17] 0.131 | [18] -0.13 | [19] 0.002 | [20] 0.024

MOCOS (UniProt Q96EN8)
inactive: [1] 0.012 | [2] 0.003 | [3] 0.031 | [4] -0.025 | [5] -0.01 | [6] 0.014 | [7] -0.023 | [8] 0.013 | [9] -0.017 | [10] -0.019 | [11] 0 | [12] 0.012 | [13] 0 | [14] -0.031 | [15] 0.043 | [16] 0.006 | [17] -0.039 | [18] 0.03 | [19] -0.001 | [20] 0.018

MLH1 (UniProt P40692)
inactive: [1] 0.01 | [2] -0.009 | [3] 0.02 | [4] -0.035 | [5] -0.018 | [6] 0.017 | [7] -0.055 | [8] 0.014 | [9] -0.006 | [10] 0.03 | [11] 0.042 | [12] -0.039 | [13] 0.014 | [14] 0.013 | [15] -0.002 | [16] 0.014 | [17] -0.029 | [18] -0.023 | [19] 0.051 | [20] 0.02

MORC3 (UniProt Q14149)
inactive: [1] 0.004 | [2] -0.023 | [3] 0.021 | [4] 0.013 | [5] -0.007 | [6] 0.007 | [7] -0.032 | [8] -0.021 | [9] 0.021 | [10] -0.027 | [11] 0.025 | [12] 0.01 | [13] 0.019 | [14] -0.03 | [15] -0.077 | [16] 0.007 | [17] -0.007 | [18] -0.055 | [19] 0.004 | [20] 0.006

MRPL11 (UniProt Q9Y3B7)
inactive: [1] -0.04 | [2] 0 | [3] 0.051 | [4] -0.014 | [5] 0.055 | [6] -0.018 | [7] -0.029 | [8] -0.002 | [9] 0.012 | [10] 0.007 | [11] 0.038 | [12] 0.012 | [13] 0.075 | [14] 0 | [15] -0.024 | [16] 0.036 | [17] 0.01 | [18] -0.06 | [19] 0.012 | [20] -0.015

MIER1 isoform 12 (UniProt Q8N108)
inactive: [1] -0.003 | [2] -0.016 | [3] 0.001 | [4] -0.027 | [5] -0.028 | [6] -0.006 | [7] -0.024 | [8] 0.005 | [9] 0.028 | [10] -0.011 | [11] 0.057 | [12] 0.013 | [13] -0.032 | [14] 0.027 | [15] 0.004 | [16] -0.027 | [17] -0.045 | [18] 0.019 | [19] -0.003 | [20] 0.042

MRE11 isoform 3 (UniProt P49959)
inactive: [1] -0.02 | [2] -0.012 | [3] -0.005 | [4] -0.001 | [5] 0.007 | [6] -0.002 | [7] -0.02 | [8] 0.003 | [9] 0.021 | [10] -0.025 | [11] 0.013 | [12] -0.012 | [13] -0.006 | [14] 0.025 | [15] 0.006 | [16] 0.005 | [17] 0.012 | [18] 0.009 | [19] -0.018 | [20] 0.007

MOCS1 isoform 8 (UniProt Q9NZB8)
inactive: [1] 0.186 | [2] 0.08 | [3] -0.066 | [4] 0.035 | [5] 0.049 | [6] -0.005 | [7] -0.003 | [8] 0.069 | [9] -0.026 | [10] -0.002 | [11] 0.063 | [12] 0.022 | [13] 0.166 | [14] -0.043 | [15] -0.004 | [16] -0.015 | [17] -0.063 | [18] -0.013 | [19] 0.006 | [20] -0.018

MLST8 (UniProt Q9BVC4)
inactive: [1] 0 | [2] 0.011 | [3] -0.038 | [4] 0.021 | [5] 0.063 | [6] -0.042 | [7] -0.021 | [8] -0.003 | [9] 0.044 | [10] 0.023 | [11] 0.025 | [12] 0.029 | [13] 0.074 | [14] 0.026 | [15] -0.009 | [16] 0.023 | [17] -0.03 | [18] 0.012 | [19] 0.075 | [20] -0.045

MRPL10 isoform 2 (UniProt Q7Z7H8)
inactive: [1] -0.062 | [2] -0.013 | [3] 0.047 | [4] -0.019 | [5] -0.04 | [6] -0.029 | [7] -0.005 | [8] 0.025 | [9] 0.053 | [10] 0.042 | [11] 0.027 | [12] 0.033 | [13] 0.132 | [14] 0.03 | [15] -0.037 | [16] -0.063 | [17] 0.075 | [18] -0.032 | [19] -0.005 | [20] 0.068

MRPL17 (UniProt Q9NRX2)
inactive: [1] 0.032 | [2] 0.014 | [3] 0.025 | [4] -0.022 | [5] -0.008 | [6] 0 | [7] 0.043 | [8] -0.079 | [9] 0.04 | [10] -0.074 | [11] 0.036 | [12] 0.055 | [13] 0.054 | [14] -0.023 | [15] -0.066 | [16] 0.045 | [17] 0.041 | [18] -0.005 | [19] -0.002 | [20] 0.031

MLLT1 (UniProt Q03111)
inactive: [1] 0.032 | [2] -0.006 | [3] 0.032 | [4] -0.017 | [5] -0.028 | [6] -0.049 | [7] -0.023 | [8] 0.058 | [9] -0.01 | [10] -0.052 | [11] -0.063 | [12] 0.033 | [13] -0.001 | [14] -0.017 | [15] 0.025 | [16] -0.029 | [17] -0.021 | [18] -0.031 | [19] 0.005 | [20] -0.049

Quoted at random: 2 entries already listed.
MRPL10 isoform 2 (UniProt Q7Z7H8)
inactive: [1] -0.062 | [2] -0.013 | [3] 0.047 | [4] -0.019 | [5] -0.04 | [6] -0.029 | [7] -0.005 | [8] 0.025 | [9] 0.053 | [10] 0.042 | [11] 0.027 | [12] 0.033 | [13] 0.132 | [14] 0.03 | [15] -0.037 | [16] -0.063 | [17] 0.075 | [18] -0.032 | [19] -0.005 | [20] 0.068

MLLT1 (UniProt Q03111)
inactive: [1] 0.032 | [2] -0.006 | [3] 0.032 | [4] -0.017 | [5] -0.028 | [6] -0.049 | [7] -0.023 | [8] 0.058 | [9] -0.01 | [10] -0.052 | [11] -0.063 | [12] 0.033 | [13] -0.001 | [14] -0.017 | [15] 0.025 | [16] -0.029 | [17] -0.021 | [18] -0.031 | [19] 0.005 | [20] -0.049

(further entries)

MIEF1 (UniProt L0R8F8)
inactive: [1] 0.078 | [2] -0.002 | [3] -0.035 | [4] -0.061 | [5] 0.003 | [6] 0.017 | [7] -0.022 | [8] -0.003 | [9] 0.025 | [10] -0.017 | [11] -0.039 | [12] -0.013 | [13] 0.013 | [14] 0.009 | [15] -0.075 | [16] 0.008 | [17] 0.1 | [18] 0.021 | [19] -0.006 | [20] -0.112

MNAT1 (UniProt P51948)
inactive: [1] 0.033 | [2] -0.029 | [3] 0.007 | [4] -0.035 | [5] 0.013 | [6] 0.014 | [7] -0.017 | [8] 0.047 | [9] -0.018 | [10] -0.016 | [11] 0.038 | [12] 0.011 | [13] -0.104 | [14] 0.021 | [15] 0.02 | [16] -0.018 | [17] -0.084 | [18] 0.09 | [19] 0.04 | [20] 0.054

MKLN1 (UniProt Q9UL63)
inactive: [1] -0.016 | [2] -0.012 | [3] 0.026 | [4] -0.017 | [5] -0.012 | [6] -0.004 | [7] -0.021 | [8] 0 | [9] 0.006 | [10] -0.008 | [11] 0.004 | [12] 0.001 | [13] -0.028 | [14] 0 | [15] 0.004 | [16] 0.009 | [17] 0.049 | [18] 0.029 | [19] 0.023 | [20] 0.009
